Laboratory results as given in paper PMC7939381, “MMP activation–associated aminopeptidase N reveals a bivalent 14-3-3 binding motif” (The Journal of Biological Chemistry, 2021).
These are yes or no findings as the source states them, for the method shown. In cells and extracts the contact can be indirect. Some binding calls cover weakened binding; strength is not graded here. For some of these results: Sequences can lack the tags named with a protein. Values belong to the binder of their own block, whether it stands above or below them.

By UniProt entry, the sequences of proteins in these tests, tags left out.
UniProt P31946: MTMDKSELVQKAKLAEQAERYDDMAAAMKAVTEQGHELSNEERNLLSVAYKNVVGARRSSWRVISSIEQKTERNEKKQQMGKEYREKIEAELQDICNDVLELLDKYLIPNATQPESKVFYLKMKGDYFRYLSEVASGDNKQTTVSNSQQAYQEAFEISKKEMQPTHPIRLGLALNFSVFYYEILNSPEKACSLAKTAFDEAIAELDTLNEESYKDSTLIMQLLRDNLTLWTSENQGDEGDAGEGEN

How the values were obtained:
[1] = target: T1, biotinylated peptide 1, APN 38–46 pSer43 (human); assay: pull-down; biotinylated peptide on streptavidin Sepharose beads, incubated 120 min in lysate of E. coli overexpressing His6-14-3-3; 50 mM HEPES pH 7.4, 250 mM NaCl, 20 mM MgCl2; SDS-PAGE, NTA-Atto488 and Coomassie stain; only the target purified
T1 sequence (peptide, phosphoserine at 43 (NKNANpSSPV); biotin via a PEG4 linker): NKNANSSPV

[2] = target: T2, biotinylated peptide 6, APN 39–47 pSer44 (human); assay: as above
T2 sequence (peptide, phosphoserine at 44 (KNANSpSPVA); biotin via a PEG4 linker): KNANSSPVA

[3] = target: 14-3-3β/α, full length, N-terminally His6-tagged (human) (UniProt P31946); assay: pull-down; competition: beads with biotin-1 and 14-3-3 captured from E. coli lysate incubated with 96 nmol soluble acetylated peptide 1 for 60 min, washed; SDS-PAGE; only the binder purified
[4] = target: T3, 14-3-3η, full length, N-terminally His6-tagged (human) (UniProt Q04917); assay: as above
T3 sequence: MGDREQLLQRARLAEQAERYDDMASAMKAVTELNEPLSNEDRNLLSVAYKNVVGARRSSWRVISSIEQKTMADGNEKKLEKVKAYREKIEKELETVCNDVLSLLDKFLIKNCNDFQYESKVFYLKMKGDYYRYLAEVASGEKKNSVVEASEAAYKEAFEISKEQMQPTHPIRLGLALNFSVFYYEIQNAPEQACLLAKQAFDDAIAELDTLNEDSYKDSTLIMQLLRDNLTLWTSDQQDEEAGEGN

binding [1]: binds | binding [2]: no binding
B1: 14-3-3η, full length, N-terminally His6-tagged (protein, UniProt Q04917 1-246)
chain: T3 sequence

binding [3]: binds | binding [4]: binds
B2: acetylated (label-free, unlabeled) peptide 1, APN 38–46 pSer43 (peptide)
peptide: NKNANSSPV
modifications: phosphoserine at 43 (NKNANpSSPV); N-terminal acetyl
